From patent US20080286349A1, “SYSTEMS, DEVICES, AND METHODS FOR PASSIVE TRANSDERMAL DELIVERY OF ACTIVE AGENTS TO A BIOLOGICAL INTERFACE” (priority 2007, published 2008)

Assay: Membrane potential measurement across skin in H-shaped Franz cell; ion mobility relative to chloride
Format: physicochemical, mouse
Conditions: for ΔΦ (membrane potential): 1.0% Diclofenac
From the text: The electric potential difference shown here is between the outside and the inside of the skin. The “+/−” notation is opposite to that shown in Equation 12. […] These values have been used to make calculations.

O=C([O-])Cc1ccccc1Nc1c(Cl)cccc1Cl.[Na+] [Diclofenac, monosodium 2-(2-(2,6-dichlorophenylamino)phenyl)acetate]
Membrane potential, Measured (0.032 mol dm^−3 sodium Diclofenac): −0.0127 V | ΔΦ (membrane potential) (KCl conc 0 %): −0.013 V | ΔΦ (membrane potential) (KCl conc 0.1 %): −0.0075 V | ΔΦ (membrane potential) (KCl conc 0.5 %): 0.002 V

O=C1O[C@H]([C@@H](O)CO)C(O)=C1O[C@H]1O[C@H](CO)[C@@H](O)[C@H](O)[C@H]1O [AA2G, L-Ascorbic acid 2-Glucoside]
Membrane Potential Δφ (AA2G 0.000059 mol cm^3): 0.0772 V | Membrane Potential Δφ (AA2G 0.000148 mol cm^3): 0.0753 V | Membrane Potential Δφ (AA2G 0.000296 mol cm^3): 0.0537 V

CCC(NC(C)C)C(O)c1ccc(O)c2[nH]c(=O)ccc12 (centres unmarked) [Procaterol HCl, 8-hydroxy-5-[1-hydroxy-2-[(1-methylethyl)amino]butyl]-2(1H)-quinolinone]
Membrane Potential (Procaterol 0.000015 mol cm^−3): 0.0064 V | Membrane Potential (Procaterol 0.00003 mol cm^−3): 0.0054 V | Membrane Potential (Procaterol 0.00006 mol cm^−3): 0.0025 V | Membrane potential, Measured ([…] Procaterol): −0.003 V

Structures can show the parent of a compound that is named as a salt.
